According to the supplement of paper PMC8090911:
Counter-ions that a name gives are not always drawn. The list shows a part of the results. Most values come without repeats; read them as rough.

System: p95-ErbB2-MCF7
Assay: perinuclear lysosome accumulation (PNLA, size of LAMP2 puncta), robust Z-score vs plate median; higher = more perinuclear lysosome accumulation (reversal of invasive lysosome distribution)
Details: 5 µM; 24 h

Row | SMILES | perinuclear lysosome accumulation
1 | CN(C)CCC=C1c2ccccc2COc2ccccc21 [Doxepin hydrochloride] | 0.657
2 | CCC[C@@H]1C[C@@H](C(=O)N[C@@H]([C@H]2O[C@H](SC)[C@H](O)[C@@H](O)[C@H]2O)[C@H](C)Cl)N(C)C1 [Clindamycin hydrochloride] | -0.769
3 | O=C(N[C@H](CO)[C@H](O)c1ccc([N+](=O)[O-])cc1)C(Cl)Cl [Chloramphenicol] | 1.31
4 | Cc1ccc2c(c1)c1c3n2CCNC3CCC1 (centres undefined) [Pirlindole mesylate] | -1.9
5 | C=C1/C(=C\C=C2/CCC[C@]3(C)[C@@H]([C@H](C)CCCC(C)C)CC[C@@H]23)C[C@@H](O)C[C@@H]1O [Alfacalcidol] | 0.52
6 | CCOc1ccc2ccccc2c1C(=O)N[C@@H]1C(=O)N2[C@@H]1SC(C)(C)[C@@H]2C(=O)O [Nafcillin sodium salt monohydrate] | 1.61
7 | CC(C)(CO)C(O)C(=O)NCCCO (centres undefined) [Panthenol (D)] | 1.13
8 | CN(C)C/C=C(/c1ccc(Br)cc1)c1cccnc1 [Zimelidine dihydrochloride monohydrate] | 2.35
9 | CCN(CC)CCNC(=O)c1cc(Cl)c(N)cc1OC [Metoclopramide monohydrochloride] | 0.0627
10 | Cn1cnc2c1c(=O)[nH]c(=O)n2C [Theobromine] | 0.753
11 | Cc1c(-c2ccccc2)oc2c(C(=O)OCCN3CCCCC3)cccc2c1=O [Flavoxate hydrochloride] | -1.23
12 | CN[C@@H]1[C@@H](O[C@H]2O[C@H](CO)[C@@H](N)[C@H](O)[C@H]2O)OC2C[C@@H](N)[C@@H](O[C@H]3[C@H](O)[C@@H](O)[C@H](N)C[C@@H]3N)OC2[C@@H]1O (some centres undefined) [Apramycin] | 0.787
13 | C#Cc1cccc(Nc2ncnc3cc(OCCOC)c(OCCOC)cc23)c1 [Erlotinib] | 0.474
14 | Cc1onc(-c2ccccc2Cl)c1C(=O)N[C@@H]1C(=O)N2[C@@H]1SC(C)(C)[C@@H]2C(=O)O [Cloxacillin sodium salt] | 1.13
15 | CN[C@@H]1[C@H](O)[C@H](NC)[C@H]2O[C@@]3(O)C(=O)C[C@@H](C)O[C@H]3O[C@@H]2[C@H]1O [Spectinomycin dihydrochloride] | -0.104
16 | NS(=O)(=O)c1cc2c(cc1Cl)NC(C(Cl)Cl)NS2(=O)=O (centres undefined) [Trichlormethiazide] | 0.647
17 | Cc1ccc(NC(=O)c2ccc(CN3CCN(C)CC3)cc2)cc1Nc1nccc(-c2cccnc2)n1 [Imatinib] | -2.15
18 | CCCC1C(=O)N2C(N(C)C)=Nc3ccc(C)cc3N2C1=O (centres undefined) [Azapropazone] | 0.466
19 | Clc1ccc(C(Cn2ccnc2)OCc2ccsc2Cl)c(Cl)c1 (centres undefined) [Tioconazole] | -0.255
20 | C[C@](N)(Cc1ccc(O)c(O)c1)C(=O)O [Methyldopa (L,-)] | 0.142
21 | c1cnc(N2CCN(Cc3ccc4c(c3)OCO4)CC2)nc1 [Piribedil hydrochloride] | 0.553
22 | C[C@H]1c2cccc(O)c2C(=O)C2=C(O)[C@]3(O)C(=O)C(C(N)=O)=C(O)[C@@H](N(C)C)[C@@H]3[C@@H](O)[C@@H]21 [Doxycycline hydrochloride] | -1.13
23 | C1CCC(C(CC2CCCCN2)C2CCCCC2)CC1 (centres undefined) [Perhexiline maleate] | 3.36

Row | SMILES | perinuclear lysosome accumulation
24 | CCc1nc(N)nc(N)c1-c1ccc(Cl)cc1 [Pyrimethamine] | 0.128
25 | CC(=O)[C@@]1(O)CC[C@H]2[C@@H]3C[C@H](C)C4=CC(=O)C=C[C@]4(C)[C@@]3(F)[C@@H](O)C[C@@]21C [Fluorometholone] | -0.529
26 | CC(C)NCC(O)COc1ccc(CCOCC2CC2)cc1 (centres undefined) [Betaxolol hydrochloride] | -0.391
27 | COc1cc(C(=O)NCc2ccc(OCCN(C)C)cc2)cc(OC)c1OC [Trimethobenzamide hydrochloride] | 0.793
28 | COc1ccc(-c2cc(=S)ss2)cc1 [Anethole-trithione] | -0.942
29 | O=C(O)c1cn(C2CC2)c2cc(N3CCNCC3)c(F)cc2c1=O [Ciprofloxacin hydrochloride] | 0.562
30 | O=C(O)/C=C/c1ccc(O)c(O)c1 [Caffeic acid] | -1.45
31 | Clc1ccc(Cn2c(CN3CCCC3)nc3ccccc32)cc1 [Clemizole hydrochloride] | -0.201
32 | COc1cc2nc(N(C)CCCNC(=O)C3CCCO3)nc(N)c2cc1OC (centres undefined) [Alfuzosin hydrochloride] | -0.648
33 | N[C@@H]1CONC1=O [D-cycloserine] | 1.26
34 | O=C(O)COCCN1CCN(C(c2ccccc2)c2ccc(Cl)cc2)CC1 (centres undefined) [Cetirizine dihydrochloride] | -2.14
35 | C#C[C@]1(OC(C)=O)CC[C@H]2[C@@H]3CCC4=CC(=NO)CC[C@@H]4[C@H]3CC[C@@]21CC (mixture of isomers) [Norgestimate] | 0.0556
36 | Clc1ccc(CO/N=C(\Cn2ccnc2)c2ccc(Cl)cc2Cl)c(Cl)c1 [Oxiconazole Nitrate] | 1.46
37 | CC(=O)O[C@]1(C(C)=O)CC[C@H]2[C@@H]3C=C(Cl)C4=CC(=O)[C@@H]5C[C@@H]5[C@]4(C)[C@H]3CC[C@@]21C [Cyproterone acetate] | 0.237
38 | Cc1ncc(CO)c(CO)c1O [Pyridoxine hydrochloride] | -1.06
39 | CCc1c(C)[nH]c2c1C(=O)C(CN1CCOCC1)CC2 (centres undefined) [Molindone hydrochloride] | 0.0215
40 | CCC1(c2ccccc2)NC(=O)N(C)C1=O (centres undefined) [Mephenytoin] | 1.02
41 | CC1=C(/C=C/C(C)=C/C=C/C(C)=C/C(=O)O)C(C)(C)CCC1 [Retinoic acid] | -1.13
42 | NC(=O)c1cc[n+](CC2=C(C(=O)[O-])N3C(=O)[C@@H](NC(=O)[C@@H](c4ccccc4)S(=O)(=O)O)[C@H]3SC2)cc1 [Cefsulodin sodium salt] | 0.0912
43 | CC(=O)Oc1ccccc1C(=O)O [Acetylsalicylic acid] | -0.137
44 | N=C(N)NS(=O)(=O)c1ccc(N)cc1 [Sulfaguanidine] | -0.137
45 | CC(=O)[C@H]1CC[C@H]2[C@@H]3CCC4=CC(=O)CC[C@]4(C)[C@H]3CC[C@]12C [Progesterone] | -0.296
46 | CN(C)CC/C=C1/c2ccccc2Sc2ccc(Cl)cc21 [Chlorprothixene hydrochloride] | 0.542

Row | SMILES | perinuclear lysosome accumulation
47 | NC(Cc1cc(I)c(Oc2cc(I)c(O)c(I)c2)c(I)c1)C(=O)O (centres undefined) [Thyroxine (L)] | -2.27
48 | CN(C)CCOC(c1ccccc1)c1ccccc1 [Diphenhydramine hydrochloride] | -0.202
49 | COc1ccc2[nH]c([S+]([O-])Cc3ncc(C)c(OC)c3C)nc2n1 (centres undefined) [Tenatoprazole] | -0.509
50 | C[C@]12CC[C@@H]3c4ccc(O)cc4CC[C@H]3[C@@H]1CC[C@@H]2O [Estradiol-17 beta] | -2.04
51 | CCCN(CCC)S(=O)(=O)c1ccc(C(=O)O)cc1 [Probenecid] | -1
52 | Clc1ccc(CSC(Cn2ccnc2)c2ccc(Cl)cc2Cl)cc1 (centres undefined) [Sulconazole nitrate] | 0.373
53 | CC1CNc2c(cccc2S(=O)(=O)N[C@@H](CCCNC(=N)N)C(=O)N2CC[C@@H](C)C[C@@H]2C(=O)O)C1 (some centres undefined) [Argatroban] | 1.11
54 | CN(C)CCN(Cc1ccccc1)c1ccccn1 [Tripelennamine hydrochloride] | -0.48
55 | Nc1ccn([C@@H]2O[C@H](CO)[C@@H](O)C2(F)F)c(=O)n1 [Gemcitabine] | -0.378
56 | CN1C(=O)CC(c2ccccc2)C1=O (centres undefined) [Phensuximide] | -2.49
57 | CC(=O)O[C@@]12CO[C@@H]1C[C@H](O)[C@@]1(C)C(=O)[C@H](O)C3=C(C)[C@@H](OC(=O)[C@H](O)[C@@H](NC(=O)OC(C)(C)C)c4ccccc4)C[C@@](O)([C@@H](OC(=O)c4ccccc4)[C@H]21)C3(C)C [Docetaxel] | 1.26
58 | N=C(N)NC(=O)Cc1c(Cl)cccc1Cl [Guanfacine hydrochloride] | -0.0886
59 | Nc1nc(Cl)nc2c1ncn2[C@H]1C[C@H](O)[C@@H](CO)O1 [Cladribine] | 0.26
60 | CN[C@@H]1[C@H](O[C@H]2[C@H](O[C@H]3[C@H](O)[C@@H](O)[C@H](N=C(N)N)[C@@H](O)[C@@H]3N=C(N)N)O[C@@H](C)[C@]2(O)C=O)O[C@@H](CO)[C@H](O)[C@H]1O [Streptomycin sulfate] | -1.93
61 | OCCOCCN1CCN(C2=Nc3ccccc3Sc3ccccc32)CC1 [Quetiapine] | 0.536
62 | CC1(C)S[C@@H]2[C@H](NC(=O)[C@H](N)c3ccc(O)cc3)C(=O)N2[C@H]1C(=O)O [Amoxicillin] | -1.42
63 | COc1cccc2c1C(=O)c1c(O)c3c(c(O)c1C2=O)C[C@@](O)(C(=O)CO)C[C@@H]3O[C@H]1C[C@H](N)[C@H](O)[C@H](C)O1 [Doxorubicin hydrochloride] | -1.43
64 | CCC(=O)O[C@@H](O[P@](=O)(CCCCc1ccccc1)CC(=O)N1C[C@H](C2CCCCC2)C[C@H]1C(=O)O)C(C)C [Fosinopril] | -0.365
65 | CCCCC(=O)O[C@H]1CC[C@H]2[C@@H]3CCc4cc(O)ccc4[C@H]3CC[C@]12C [Estradiol Valerate] | -0.0974
66 | CC(=O)Nc1cc2ccccc2oc1=O [3-Acetamidocoumarin] | 0.867
67 | N=C(N)c1ccc(OCCCCCOc2ccc(C(=N)N)cc2)cc1 [Pentamidine isethionate] | 0.469
68 | Fc1ccc(C(c2ccc(F)cc2)N2CCN(C/C=C/c3ccccc3)CC2)cc1 [Flunarizine dihydrochloride] | -0.114
69 | CCCc1cc(=O)[nH]c(=S)[nH]1 [Propylthiouracil] | -0.557

Some values from the entries so far.
CC1(C)S[C@@H]2[C@H](NC(=O)[C@H](N)c3ccc(O)cc3)C(=O)N2[C@H]1C(=O)O [Amoxicillin] – perinuclear lysosome accumulation: -1.42
C#C[C@]1(OC(C)=O)CC[C@H]2[C@@H]3CCC4=CC(=NO)CC[C@@H]4[C@H]3CC[C@@]21CC (mixture of isomers) [Norgestimate] – perinuclear lysosome accumulation: 0.0556
N=C(N)NS(=O)(=O)c1ccc(N)cc1 [Sulfaguanidine] – perinuclear lysosome accumulation: -0.137
